Target: the molecule itself
Experiment: ITC; titration of the protein into buffer (dilution); dimer to monomers; 20 mM HEPES pH 7.5, 100 mM NaCl, 0.25 mM TCEP

B1: Hook1_(1–239)GCN4 (other)
chain: MEETQPPPQPKLPLCDSLMIWLQTFNTASPCQDVKQLTSGVAMAQVLHQIDAAWFNESWLSRIKEDVGDNWRIKASNVKKVLQGIMSYYHEFLGQQISEALIPDLNQITECSDPVELGRLLQLILGCAINCEKKQEHIQNIMTLEESVQHVVMTAIQELMSKEILSSPPNDAVGELEQQLKRALEELQEALAEKEELRQRCEELDMQVTTLQDEKNSLVSENEMMNEKLDQLDGSFDDPMKQLEDKVEELLSKNYHLENEVARLKKL
notes: human Hook1, UniProt Q9UJC3-1, residues 1-239; 28-a.a; Dimeric construct stabilised by the GCN4 leucine zipper; source: E. coli BL21 (DE3), purified (amylose column, TEV cleavage, gel filtration)
- binding result: binds
